Article PMC12040169 (PLOS Biology, 2025)
The list shows a part of the results.

The compounds below were run on T1, CTL2-GFP (C. trachomatis L2/434/Bu, GFP-expressing). Conditions: bulk GFP, single well; 28.5 h, 10 µM; inhibitor.
T1 construct: L2/434/Bu, GFP-expressing
Design: species or system HeLa; Intracellular C. trachomatis growth in HeLa cells, bulk GFP fluorescence relative to DMSO

Structure (SMILES)	% of control remaining
COc1cc(-c2cncc(N3CCC(C(=O)O)CC3)n2)cc(OC)c1OC [CBK037973]	104.56%
COc1ccc2[nH]c3c(c2c1)CCNC31CCN(CCSc2ccccc2)C1 (stereo not drawn) [CBK084541T]	90.3528%
CN(CC(=O)NCc1ccc(OCC(N)=O)cc1)C1CCCCC1 [CBK306331]	153.009%
CC(=O)NCc1cccc(-c2cc(C(=O)NCC3CN(Cc4ccccc4)CCO3)cnc2-c2ccc(Cl)cc2)c1 (stereo not drawn) [CBK164416T]	103.308%
O=C(CN(c1cccc(Cl)c1)S(=O)(=O)c1ccccc1)Nc1cccc2cccnc12 [CBK263270]	86.9757%
Cc1ccc(-c2cnc(NC(=O)Cn3cccn3)n2C)cc1C [CBK281727]	92.4662%
Cn1c(N2CCCC(C(N)=O)C2)nc2ccccc21 (stereo not drawn) [CBK282372]	154.588%
Cc1ccc(CN[C@@H]2COC[C@H]2Cc2cc(C)no2)cc1 [CBK283030]	92.5869%
COC(=O)c1ccc(Oc2nc(OC)cc(OC)n2)cc1 [CBK092221]	118.303%
C=CCN1CCC2(CC1)CN(C(C)=O)Cc1cc(C)ccc1O2 [CBK282693]	118.51%
COC(=O)c1c(NC(=O)CC2NCCNC2=O)sc(C)c1C (stereo not drawn) [CBK269447]	169.666%
CCOc1ccc(-c2nc(CSc3n[nH]c(=O)n3Cc3ccccc3)cs2)cc1 [CBK296737]	133.939%
CCN(CC)C(=O)Cn1c(=O)n(CC)c2ncccc21 [CBK282347]	133.715%
Cc1[nH]c(=O)[nH]c(=S)c1C(=O)Nc1ccc2c(c1)OCO2 [CBK115519]	117.255%
COCCNC(=O)c1cc(-c2ccc(C)s2)nc2c1cnn2C(C)C [CBK305051]	140.453%
COc1ccc(-c2nnc(SCC(=O)Nc3ccccc3[N+](=O)[O-])n2C)cc1 [CBK265609]	133.243%
COc1cc(C(C)c2cc3c(cc2O)OCO3)cc(OC)c1OC (stereo not drawn) [CBK200103]	80.31%
CC1=C[C@@H](CNS(=O)(=O)c2cccs2)[C@H](C(C)C)C[C@H]1CC(=O)O [CBK289210]	115.109%
O=C(O)c1cccnc1SC1CC(=O)N(c2cccc(Cl)c2Cl)C1=O (stereo not drawn) [CBK269306]	112.151%
Nc1ncc(-c2ccc(C(=O)N3CCOCC3)cc2)nc1-c1ccc(Cl)s1 [CBK138510]	122.104%
CC1(C)CC(=O)c2sc(NC(=O)C3CC3)nc2C1 [CBK287329]	117.558%
COc1ccc(-c2ocnc2C(=O)NCCc2ccccc2F)cc1 [CBK283941]	121.535%
CN(C)CCCC(=O)Nc1ccc2c(ccn2Cc2ccccc2)c1 [CBK159740]	101.531%
CN1CCCc2c1oc1c(OCc3cccnc3)cccc1c2=O [CBK007904]	100%
Cc1ccc(C(C)C)c(OCC(=O)N2CCN(Cc3nc4cc([N+](=O)[O-])ccc4n3C)CC2)c1 [CBK268519]	106.833%
CN1CCc2nc(SCc3cccnc3)c(C#N)cc2C1 [CBK267463]	137.115%

Structure (SMILES)	% of control remaining
CCCCCC(=O)N1CCc2cc(N3CC(CNC(C)=O)OC3=O)ccc21 (stereo not drawn) [CBK007646]	109.324%
COc1ccc(-c2c3c(nc4sc(C(=O)N5CCOCC5)c(N)c24)CC(C)(C)CC3=O)cc1 [CBK131884]	99.5453%
O=C1Nc2ccc(S(=O)(=O)NCC(O)c3ccc([N+](=O)[O-])cc3)c3cccc1c23 (stereo not drawn) [CBK266745]	121.747%
Cn1nc(C(C)(C)C)cc1NC(=O)CN1CCc2cncnc2C1 [CBK304934]	109.593%
O=C(NCc1cccnc1)N1CCN(c2ccccc2)CC1 [CBK155178]	111.781%
CSc1nnc(CC2CCN(C(=O)c3ccc(C)cc3F)CC2)n1C [CBK306939]	103.478%
COc1ccc2nc(NC(=O)c3ccc4c(c3)OCCO4)sc2c1 [CBK287572]	110.304%
O=C(CO)N1CC2(CCN(CCc3c[nH]c4ccccc34)CC2)c2ccccc21 [CBK131503]	103.259%
CC(=O)Nc1ccc(NC(=O)Cc2n[nH]c(=S)n2Cc2ccccc2)cc1 [CBK296754]	161.484%
COc1ccc(-c2nc(C#N)c(NCCN3CCOCC3)o2)cc1 [CBK265769]	119.872%
Cc1cccc(CC(=O)N2CCC(Cc3ccc(-c4cccc(C)c4)cc3)(C(N)=O)CC2)c1 [CBK285798]	72.9499%
NC(=O)CSc1nnc(NC(=O)c2ccc(Cl)cc2Cl)s1 [CBK287627]	176.749%
Cn1c(SCC(=O)Nc2cc(C(C)(C)C)no2)nnc1-c1ccc(C(C)(C)C)cc1 [CBK297133]	128.787%
N/C(=N\OC(=O)CSc1ccccc1)c1ccccn1 [CBK266056]	127.358%
COC1CCC(C(=O)N2CCC(COc3ccc(-c4ccc(S(C)(=O)=O)cc4)cn3)CC2)CC1 (stereo not drawn) [CBK161995]	109.079%
O=C(O)CCC(=O)Nc1ccccc1C(=O)NC1CCCCC1 [CBK267674]	87.0442%
COc1cc(-c2cnc3cccnc3c2N)cc(OC)c1OC [CBK081190]	99.7603%
CC1CCN(S(=O)(=O)c2cccc3c(S(=O)(=O)N4CCC(C)CC4)cccc23)CC1 [CBK262071]	81.4351%
Cc1ccc(OCC(=O)N2CCN(C(=O)c3cccs3)CC2)c([N+](=O)[O-])n1 [CBK297152]	145.276%
CN1CCC(C(=O)NC(=O)NCCOc2cccc3ccccc23)CC1 [CBK051100]	88.0865%
Cc1nn(C(C)CC(=O)NCCN2CCc3ccccc32)c(C)c1C (stereo not drawn) [CBK282675]	128.722%
Cc1cc(Br)c(O)c(C(=O)N(C)CC(=O)Nc2cc(C)on2)c1 [CBK306002]	62.4165%
CC(=O)Nc1ccc(S(=O)(=O)NC2(C(F)(F)F)C(=O)Nc3c2c(=O)[nH]c(=O)n3CCc2ccccc2)cc1 (stereo not drawn) [CBK267937]	80.2077%
O=C(Cn1cccc2cc(-c3ccc(F)cc3)nc1-2)N1CCOCC1 [CBK284809]	110.81%
COc1ccccc1N(CC(=O)Nc1c(C)cccc1C)S(=O)(=O)c1ccc(C)cc1 [CBK264810]	127.702%
O=C(Nc1ccncc1)c1cnc2cc(C(F)(F)F)ccc2c1O [CBK116633T]	104.815%

Molecules from the list above containing a CF3 group, in the order listed:
Structure (SMILES)	% of control remaining
CC(=O)Nc1ccc(S(=O)(=O)NC2(C(F)(F)F)C(=O)Nc3c2c(=O)[nH]c(=O)n3CCc2ccccc2)cc1 (stereo not drawn) [CBK267937]	80.2077%
O=C(Nc1ccncc1)c1cnc2cc(C(F)(F)F)ccc2c1O [CBK116633T]	104.815%

Next part.

Structure (SMILES)	% of control remaining
CC(C)c1ccccc1NC(=O)NC(=O)C1CCN(CCc2ccc(C#N)cc2)CC1 [CBK035010]	111.076%
CSc1ccc(-n2cc(-c3ccc(F)cc3F)nn2)cc1 [CBK112979]	128.028%
COC(=O)Nc1ccc2c(c1)N(C(=O)CCN(C)C)c1ccccc1CC2 [CBK262972C]	100%
CCn1c(=O)c(C=Cc2cccc(Br)c2)nc2cc(C(=O)O)ccc21 [CBK295364]	132.255%
O=C(NC1CCN(c2ncccn2)CC1)c1ccc[nH]c1=S [CBK241695]	110.098%
CCCNC(=O)c1ccc(C)c(S(=O)(=O)Nc2ccc(C)cc2C)c1 [CBK269084]	108.967%
COC(=O)c1ccccc1NC(=O)CC1Sc2ccccc2NC1=O (stereo not drawn) [CBK269400]	129.114%
O=C(NCC1CCCO1)C1CCN(C(=O)c2cccc(F)c2)CC1 (stereo not drawn) [CBK304633]	120.088%
Cc1cc(NC(=O)OCc2cccnc2C)c2ccccc2n1 [CBK200129]	85.1519%
CC(C)(C)c1cc(CN)c(C(=O)O)o1 [CBK266510C]	146.14%
O=C(Cn1c(=O)oc2ccccc21)Nc1ccc(N2CCOCC2)c(Cl)c1 [CBK270079]	103.237%
NC(=O)CSc1nnc(-c2cccnc2)n1Cc1ccccc1 [CBK268672]	94.8792%
CN1CCC(N(C)C(=O)Nc2cccnc2)C1 (stereo not drawn) [CBK156026]	142.398%
O=C(Cn1cnc2ccccc21)N1CCc2[nH]c3ccccc3c2C1 [CBK281860]	127.932%
O=C(O)CCSC1=CCS(=O)(=O)c2ccc(Cl)cc21 [CBK013721]	87.0384%
Cc1ccc(Nc2nc(N)nc(CSc3nccn3C)n2)cc1 [CBK266468]	120.753%
CCOC(=O)c1sc(Cl)nc1C(F)(F)F [CBK026746]	143.766%
C[C@@H]1CN(C(=O)OCCn2cccc2)C[C@H](C)O1 [CBK200123]	126.46%
O=C(O)c1cc(S(=O)(=O)Nc2nnc(C(F)(F)F)s2)c(F)cc1Cl [CBK062022]	107.975%
CSCC[C@H](NC(=O)OC(C)(C)C)C(=O)NCc1csc(-c2ccccc2)n1 [CBK092345]	122.839%
CC(=O)N1CCc2sccc2C1c1ccccc1NCc1ccoc1 (stereo not drawn) [CBK286432]	24.592%
O=C1/C(=C/NCc2cccnc2)C(c2ccccc2)=NN1c1ccc([N+](=O)[O-])cc1 [CBK262911]	119.352%
COc1ccc(C2(C(=O)NCc3cnc(C)cn3)CC2)cc1 [CBK149830]	104.865%
Cc1nc(SCC(N)=O)nc(C)c1CCC(=O)NCc1ccc(F)cc1 [CBK295201]	124.803%
CC(C)CN1CCCN(S(=O)(=O)c2ccc(-n3cnc(Cl)c3Cl)cc2)CC1 [CBK063017]	104.763%
Cc1ccc(/C=C/C(=O)O)cc1S(=O)(=O)NCCO [CBK264404]	100%
